# Assay results published in PubChem BioAssay AID504467 (National Center for Advancing Translational Sciences (NCATS), 2011).
# Hit rate of the full screen: of about 330,000 compounds, about 7,700 (2.3%) were called active. The shares of active, inactive and inconclusive entries below differ from those in the screen. Calls follow the shape of the dose curve; as a rule, active = well fitted inhibition curve with a large enough effect; inconclusive = small, poorly fitted or top-dose-only effect, or effect the other way; inactive = flat fitted curve, though single readings scatter. Potencies beside an inconclusive call are fits to weak or partial responses and may not hold up.
# Assay: qHTS screen for small molecules that inhibit ELG1-dependent DNA repair in human embryonic kidney (HEK293T) cells expressing luciferase-tagged ELG1; also: nearly all actives have a fitted effect of over 55% in size
# Details: HEK293T ELG1-luciferase reporter, luminescence, 16 h, DNA damage induced by 5-fluorouridine; activity change, negative = inhibition: at 46.1 µM (top of the series)
# In short: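 Luminescence from the luciferase reporter, measured 30 min after ONE-Glo reagent at room temperature, was the read-out. Beforehand, 2,000 cells per well were exposed for 16 hr at 37 °C to 5-fluorouridine together with compound or vehicle.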
# % is scaled to controls: 0 for no effect and ±100 for the full control effect; potency is read from the fitted curve at half-maximal effect.
SMILES,Potency,"activity change, negative = inhibition"
O=C(Cc1ccc(F)cc1)N1CCC(CC2CC(c3cccc(Br)c3)=NO2)(C(=O)NCC2CCCCC2)CC1 (centres undefined),"inconclusive: 25.9 µM [inhibitor, single point]",–
CCC(Sc1nnc(-c2ccc(C)c(Cl)c2)n1CC)C(=O)Nc1nccs1 (centres undefined),"inconclusive: 35.5 µM [inhibitor, single point]",–
CN1CCN(C2=NC(=O)/C(=C/c3cn[nH]c3-c3ccccc3)S2)CC1,"inconclusive: 25.9 µM [inhibitor, partial curve]",–
Cc1cccc(NC(=O)/C=C/c2ccc3c(c2)OCO3)n1,"inconclusive: 1.84 µM [activator, partial curve]",–
COc1ccc(CCc2nnc(CCC(=O)N(C)Cc3ccnc4ccccc34)o2)cc1,"inconclusive: 4.61 µM [inhibitor, full curve]",–
CN(Cc1ccccc1)S(=O)(=O)c1ccc2[nH]c(=O)ccc2c1,"inconclusive: 18.3 µM [activator, partial curve, poor fit]",–
CCC(=O)NC(c1cc(Cl)c2cccnc2c1O)C1CC1 (centres undefined),"inconclusive: 18.3 µM [inhibitor, single point]",–
Cc1ccc(CSc2nnc(-c3cccc4ccccc34)o2)cc1,–,inactive: 20%
CCn1cc(/C=C/C(=O)c2ccc(O)cc2)c(C)n1,"inconclusive: 18.3 µM [activator, partial curve]",–
N=c1ccn(Cc2ccc(Cl)cc2Cl)cc1,active: 8.2 µM,–
CCOC(=O)C1(Cc2cccc(OC)c2)CCCN(C(=O)c2ccccc2C)C1 (centres undefined),"inconclusive: 8.2 µM [activator, partial curve]",–
CC(NC(=O)C1CCN(C(=O)c2ccc(F)cc2)CC1)c1ccc(-n2ccnc2)cc1 (centres undefined),–,inactive: 7.12%
COc1ccccc1Nc1nc(NCc2ccco2)nc(N)c1[N+](=O)[O-],active: 18.3 µM,–
COc1ccc(C2=CC(=O)C[C@H](c3ccc4c(c3)OCO4)C2)cn1,"inconclusive: 18.3 µM [inhibitor, single point]",–
O=C(CC12CC3CC(CC(Br)(C3)C1)C2)NC1CCCC1,–,inactive: 15.8%
c1ccc2c(c1)nc1n2CCS1,–,inactive: -0.636%
CCOc1ccc(C(C(=O)NCC2CCCO2)N(C(=O)c2snc(C(N)=O)c2N)c2ccc3c(c2)OCCO3)cc1 (centres undefined),active: 3.26 µM,–
Cc1cc2ccccn2c1C(=O)c1ccc([N+](=O)[O-])cc1[N+](=O)[O-],"inconclusive: 11.6 µM [inhibitor, partial curve, poor fit]",–
COc1ccc(C)cc1S(=O)(=O)N1CCN(S(=O)(=O)c2cc(C)ccc2OC)CC1,–,inactive: 1.47%
CCc1nc2c(cnn2-c2ccc(F)cc2)c(=O)n1-c1ccc(N2CCC(C)CC2)cc1,active: 16.4 µM,–
CCN(CC)CCOc1nnc(-c2ccc(C)cc2)c2ccccc12,–,inactive: -4.72%
COC(=O)CNC(=O)C1(C)C=CCN1C(=O)c1ccccc1 (centres undefined),"inconclusive: 20.6 µM [activator, partial curve]",–
COc1cccc(OCCNC(=O)c2ccccc2Sc2ccccc2C#N)c1,"inconclusive: 14.6 µM [inhibitor, partial curve]",–

SMILES,Potency,"activity change, negative = inhibition"
S=C1NC[C@H](CC2CCCCC2)N1CC1CCCCC1,"inconclusive: 18.3 µM [inhibitor, single point]",–
CC1=CN2C(=N)/C(=C/c3ccc([N+](=O)[O-])o3)C(=O)N=C2S1,"inconclusive: 29.1 µM [inhibitor, single point]",–
CC(C)(C)c1cccc(OCCCSc2ncccn2)c1,"inconclusive: 29.1 µM [activator, single point]",–
COC(=O)c1cccc(NC(=O)CSc2nc3cccnc3n2C)c1,active: 13 µM,–
CCN(CCC(=O)Nc1cc(OC)cc(OC)c1)Cc1ccccc1,–,inactive: 2.91%
CN(CC(=O)Nc1ccc(Cl)c(C(F)(F)F)c1)Cc1cc(=O)n2ccsc2n1,"inconclusive: 16.4 µM [inhibitor, single point]",–
COc1ccc(-c2[nH]ncc2CN2CCC(O)(c3ccc(Cl)cc3)CC2)cc1,"inconclusive: 29.1 µM [inhibitor, single point]",–
Nc1c(C(=O)N/N=C/c2ccccc2)cnn1-c1ccccc1,"inconclusive: 10.3 µM [activator, partial curve]",–
N#Cc1c(N)n(CCNC(=O)c2ccc(Cl)cc2)c2nc3ccccc3nc12,"inconclusive: 5.17 µM [inhibitor, full curve]",–
O=C(NCCc1ccc(Cl)cc1)C1CCC(CNc2nc(=S)[nH]c3ccccc23)CC1 (centres undefined),"inconclusive: 29.1 µM [activator, single point]",–
COc1cc(/C=N/NS(=O)(=O)c2ccc3ccccc3c2)ccc1OCCN1CCOCC1,"inconclusive: 20.6 µM [activator, single point]",–
CC(=O)c1c(C)[nH]c(C(=O)OCc2c(F)cccc2Cl)c1C,active: 7.3 µM,–
CNC(=O)N/N=C(\N)c1ccccn1,"inconclusive: 18.3 µM [activator, single point]",–
CN(C)/C=C1\Oc2ccc3ccccc3c2C1=O,"inconclusive: 16.4 µM [activator, partial curve]",–
CC(=O)Nc1ccc(S(=O)(=O)N[C@@H](C)C(=O)N2CCN(C/C=C/c3ccccc3)CC2)cc1,"inconclusive: 20.6 µM [inhibitor, single point]",–
CCOC(=O)c1cnc2cc(-c3ccc(Cl)cc3)nn2c1N,"inconclusive: 4.11 µM [activator, partial curve]",–
CCOCCCN(C(=O)c1ccco1)C(C(=O)NC1CCCC1)c1ccc(OC)cc1 (centres undefined),–,inconclusive: 46.5% [activator]
COc1ccc(C(CNC(=O)c2cccn2C)N2CCOCC2)cc1 (centres undefined),"inconclusive: 18.3 µM [activator, partial curve]",–
CCOC(=O)C1(CCOc2ccccc2)CCN(S(=O)(=O)N(C)C)CC1,–,inactive: 0.371%
CC(=O)Oc1ccc(C(=O)Nc2cc(NC(=O)c3ccc(OC(C)=O)cc3)cc(C(=O)NC(C)(C)C)c2)cc1,"inconclusive: 29.1 µM [inhibitor, single point]",–
CC(=O)c1c(C)n(-c2ccccc2Br)c2ccc(O)cc12,"inconclusive: 25.9 µM [inhibitor, partial curve, poor fit]",–
O=C(Oc1ccc(C(=S)N2CCCCC2)cc1)c1ccccc1,–,inactive: 4.05%
CCN(CC)c1ccc(/C=N/NC(=O)Cc2ccc(OC)c(OC)c2)cc1,–,inactive: -4.43%

# Laid out differently: entries from further up.
SMILES	Potency	activity change, negative = inhibition
O=C(Cc1ccc(F)cc1)N1CCC(CC2CC(c3cccc(Br)c3)=NO2)(C(=O)NCC2CCCCC2)CC1 (centres undefined)	inconclusive: 25.9 µM [inhibitor, single point]	–
Cc1cccc(NC(=O)/C=C/c2ccc3c(c2)OCO3)n1	inconclusive: 1.84 µM [activator, partial curve]	–
COc1ccc(CCc2nnc(CCC(=O)N(C)Cc3ccnc4ccccc34)o2)cc1	inconclusive: 4.61 µM [inhibitor, full curve]	–
CCn1cc(/C=C/C(=O)c2ccc(O)cc2)c(C)n1	inconclusive: 18.3 µM [activator, partial curve]	–
CCOC(=O)C1(Cc2cccc(OC)c2)CCCN(C(=O)c2ccccc2C)C1 (centres undefined)	inconclusive: 8.2 µM [activator, partial curve]	–
COc1ccccc1Nc1nc(NCc2ccco2)nc(N)c1[N+](=O)[O-]	active: 18.3 µM	–
Cc1cc2ccccn2c1C(=O)c1ccc([N+](=O)[O-])cc1[N+](=O)[O-]	inconclusive: 11.6 µM [inhibitor, partial curve, poor fit]	–
CCc1nc2c(cnn2-c2ccc(F)cc2)c(=O)n1-c1ccc(N2CCC(C)CC2)cc1	active: 16.4 µM	–
COc1cccc(OCCNC(=O)c2ccccc2Sc2ccccc2C#N)c1	inconclusive: 14.6 µM [inhibitor, partial curve]	–
S=C1NC[C@H](CC2CCCCC2)N1CC1CCCCC1	inconclusive: 18.3 µM [inhibitor, single point]	–
CCN(CCC(=O)Nc1cc(OC)cc(OC)c1)Cc1ccccc1	–	inactive: 2.91%
CN(CC(=O)Nc1ccc(Cl)c(C(F)(F)F)c1)Cc1cc(=O)n2ccsc2n1	inconclusive: 16.4 µM [inhibitor, single point]	–
COc1ccc(-c2[nH]ncc2CN2CCC(O)(c3ccc(Cl)cc3)CC2)cc1	inconclusive: 29.1 µM [inhibitor, single point]	–
Nc1c(C(=O)N/N=C/c2ccccc2)cnn1-c1ccccc1	inconclusive: 10.3 µM [activator, partial curve]	–
O=C(NCCc1ccc(Cl)cc1)C1CCC(CNc2nc(=S)[nH]c3ccccc23)CC1 (centres undefined)	inconclusive: 29.1 µM [activator, single point]	–
CC(=O)c1c(C)[nH]c(C(=O)OCc2c(F)cccc2Cl)c1C	active: 7.3 µM	–
CCOCCCN(C(=O)c1ccco1)C(C(=O)NC1CCCC1)c1ccc(OC)cc1 (centres undefined)	–	inconclusive: 46.5% [activator]
CC(=O)Oc1ccc(C(=O)Nc2cc(NC(=O)c3ccc(OC(C)=O)cc3)cc(C(=O)NC(C)(C)C)c2)cc1	inconclusive: 29.1 µM [inhibitor, single point]	–
CC(=O)c1c(C)n(-c2ccccc2Br)c2ccc(O)cc12	inconclusive: 25.9 µM [inhibitor, partial curve, poor fit]	–

# Next part:

SMILES,Potency,"activity change, negative = inhibition"
O=C1[C@@H](Oc2ccccc2)[C@@H](c2ccncc2)N1c1ccccc1,"inconclusive: 13 µM [inhibitor, partial curve]",–
Cc1ccc2sc(-c3ccc(NC(=O)CCN4C(=O)c5ccccc5C4=O)cc3)nc2c1,"inconclusive: 0.461 µM [activator, full curve]",–
C[C@H]1CN([C@@H](C)CO)C(=O)Cc2cc(NC(=O)C3CC3)ccc2O[C@H]1CN(C)Cc1ccc(C(=O)O)cc1,–,inactive: -0.0252%
Fc1ccc(-c2nnc3sc(C4COc5ccccc5O4)nn23)cc1 (centres undefined),–,inactive: 7.3%
COc1ccccc1C(CNC(=O)c1cc(S(=O)(=O)N2CCOCC2)ccc1C)N1CCCC1 (centres undefined),–,inactive: 6.77%
O=C(NCC1CCCO1)C1CCN(S(=O)(=O)c2cccc3cccnc23)CC1 (centres undefined),"inconclusive: 29.1 µM [inhibitor, single point]",–
Cc1ccc(C(c2nnnn2C2CCCCC2)N2CCN3CCCC3C2)cc1 (centres undefined),–,inactive: -3.13%
CC1CN=C(NC(=O)c2cccc([N+](=O)[O-])c2)S1 (centres undefined),"inconclusive: 2.59 µM [activator, partial curve]",–
Cc1cccc(NS(=O)(=O)c2csc(C(N)=O)c2)c1C,–,inactive: -17.5%
CCOc1cc(NC(=O)C2CC2)c(OCC)cc1NC(=O)c1ccccc1OCC,"inconclusive: 29.1 µM [inhibitor, single point]",–
O=C(COc1ccccc1)N/N=C/c1ccc([N+](=O)[O-])o1,"inconclusive: 0.291 µM [inhibitor, partial curve, poor fit]",–
CN(C(=O)CCc1nnc(-c2ccc(-c3ccccc3)cc2)o1)C1CCOCC1,"inconclusive: 18.3 µM [activator, partial curve, poor fit]",–
O=C(OCc1cccc([N+](=O)[O-])c1)c1cccnc1Cl,"inconclusive: 4.11 µM [inhibitor, single point]",–
COc1cc2c(cc1NC(=O)CN(C)Cc1cccc(OC)c1OC)oc1ccccc12,"inconclusive: 23.1 µM [inhibitor, single point]",–
O=C(CN1C(=O)NC2(CCCCC2)C1=O)NNC(=O)C1CC1,–,inactive: 11.4%
CC(=O)C(C(C)=O)c1c(Cl)c(O)c(O)c2c(C(=O)c3ccccc3)coc12,"inconclusive: 4.11 µM [inhibitor, partial curve]",–
Cc1onc(-c2c(F)cccc2Cl)c1C(=O)Nc1nc2c(s1)CCCC2,"inconclusive: 32.6 µM [inhibitor, partial curve, poor fit]",–
COC(CNC(=O)Cn1nc(Cc2ccncc2)c2ccccc2c1=O)OC,–,inactive: 1.9%
CC(C)(C)NCC(=O)N/N=C/c1ccc(OCc2ccccc2)cc1,"inconclusive: 29.1 µM [activator, single point]",–
COc1ccc(NS(=O)(=O)c2cc(NC(=O)c3cnccn3)ccc2OC)cc1Br,"inconclusive: 18.3 µM [inhibitor, partial curve, poor fit]",–
COc1cccc(/C(C)=N/NC(=O)c2cc(-c3cccnc3)nc3ccccc23)c1,"inconclusive: 23.1 µM [inhibitor, single point]",–
O=C(Nc1ccc(N2C(=O)C3CCCCC3C2=O)cc1Cl)c1cccs1 (centres undefined),–,inactive: 17.1%
CCC1CSC(Nc2ccc(C(=O)/C=C/c3ccc(Br)cc3)cc2)=N1 (centres undefined),–,inactive: 14.7%
